Measurements: paper PMC3242765, “Inhibitors of Alphavirus Entry and Replication Identified with a Stable Chikungunya Replicon Cell Line and Virus-Based Assays” (PLoS ONE, 2011)

Experiments:
BHK cells = experiment: Cell viability ATP assay, BHK cells; assay type: cell-based, hamster; conditions: 48 h exposure of BHK cells
SFV-Rluc = conditions: read-out: SFV IC50

Q: Which IC50 (BHK cells) does the source give for Cc1cc(=O)oc2cc(O)ccc12 [Methyl umbelliferone] here?
A: 180 µM

Q: What about the IC50 (SFV-Rluc) of the same molecule?
A: 18.8 µM
